According to patent US9802941B2, “Compounds and methods for inhibiting histone demethylases” (Gilead Sciences, Inc., priority 2014, dated 2017):
Where two headings read alike, the source gives them in different places. The match of structure and compound is tentative.

Protein sequences, listed by entry. Tags and fused reporters are not part of them. Residues count along the entry.
UniProt Q9UPP1, 37-440 limits assumed: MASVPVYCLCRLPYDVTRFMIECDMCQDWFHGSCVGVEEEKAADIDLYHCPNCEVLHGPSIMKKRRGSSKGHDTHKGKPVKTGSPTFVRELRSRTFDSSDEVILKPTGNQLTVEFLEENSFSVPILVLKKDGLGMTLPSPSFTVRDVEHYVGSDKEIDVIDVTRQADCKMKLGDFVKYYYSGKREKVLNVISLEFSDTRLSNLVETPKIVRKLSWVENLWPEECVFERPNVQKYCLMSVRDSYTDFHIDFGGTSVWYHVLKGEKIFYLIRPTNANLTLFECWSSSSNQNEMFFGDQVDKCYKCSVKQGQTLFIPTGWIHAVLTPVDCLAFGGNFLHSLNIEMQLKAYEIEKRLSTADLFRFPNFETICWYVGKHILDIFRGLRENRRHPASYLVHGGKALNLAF
UniProt Q9UGL1, 1-809 limits assumed: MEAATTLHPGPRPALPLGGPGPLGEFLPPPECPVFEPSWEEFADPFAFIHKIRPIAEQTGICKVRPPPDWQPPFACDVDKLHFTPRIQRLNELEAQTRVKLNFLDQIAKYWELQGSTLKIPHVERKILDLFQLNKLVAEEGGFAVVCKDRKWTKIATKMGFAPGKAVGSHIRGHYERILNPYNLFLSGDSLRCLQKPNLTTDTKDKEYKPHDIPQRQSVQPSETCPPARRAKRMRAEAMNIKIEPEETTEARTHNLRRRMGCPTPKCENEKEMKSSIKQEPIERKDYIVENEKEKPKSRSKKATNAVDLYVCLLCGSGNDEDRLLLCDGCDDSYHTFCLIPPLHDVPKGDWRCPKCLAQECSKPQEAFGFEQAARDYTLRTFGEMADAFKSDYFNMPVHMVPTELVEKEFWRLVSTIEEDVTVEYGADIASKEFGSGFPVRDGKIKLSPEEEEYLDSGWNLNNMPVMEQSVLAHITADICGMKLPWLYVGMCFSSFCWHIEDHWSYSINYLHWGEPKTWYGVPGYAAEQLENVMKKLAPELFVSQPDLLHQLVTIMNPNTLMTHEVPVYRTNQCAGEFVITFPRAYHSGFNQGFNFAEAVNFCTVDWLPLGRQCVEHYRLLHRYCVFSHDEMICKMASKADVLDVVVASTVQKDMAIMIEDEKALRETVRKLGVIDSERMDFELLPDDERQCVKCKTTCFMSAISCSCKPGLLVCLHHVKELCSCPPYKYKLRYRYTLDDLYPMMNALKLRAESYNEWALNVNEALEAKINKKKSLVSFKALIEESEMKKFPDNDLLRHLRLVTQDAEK
UniProt Q9H3R0, 1-349 limits assumed: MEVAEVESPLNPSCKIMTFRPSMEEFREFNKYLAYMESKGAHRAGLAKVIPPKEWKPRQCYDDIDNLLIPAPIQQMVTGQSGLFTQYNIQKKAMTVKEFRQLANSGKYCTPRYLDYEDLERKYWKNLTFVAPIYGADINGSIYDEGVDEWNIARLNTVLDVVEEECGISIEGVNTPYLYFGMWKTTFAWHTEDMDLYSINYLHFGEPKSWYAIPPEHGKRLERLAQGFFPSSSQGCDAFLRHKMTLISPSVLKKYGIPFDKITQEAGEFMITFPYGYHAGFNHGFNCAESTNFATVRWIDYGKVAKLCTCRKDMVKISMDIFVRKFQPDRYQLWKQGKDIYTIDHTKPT
UniProt Q8NHM5, 1-650 limits assumed: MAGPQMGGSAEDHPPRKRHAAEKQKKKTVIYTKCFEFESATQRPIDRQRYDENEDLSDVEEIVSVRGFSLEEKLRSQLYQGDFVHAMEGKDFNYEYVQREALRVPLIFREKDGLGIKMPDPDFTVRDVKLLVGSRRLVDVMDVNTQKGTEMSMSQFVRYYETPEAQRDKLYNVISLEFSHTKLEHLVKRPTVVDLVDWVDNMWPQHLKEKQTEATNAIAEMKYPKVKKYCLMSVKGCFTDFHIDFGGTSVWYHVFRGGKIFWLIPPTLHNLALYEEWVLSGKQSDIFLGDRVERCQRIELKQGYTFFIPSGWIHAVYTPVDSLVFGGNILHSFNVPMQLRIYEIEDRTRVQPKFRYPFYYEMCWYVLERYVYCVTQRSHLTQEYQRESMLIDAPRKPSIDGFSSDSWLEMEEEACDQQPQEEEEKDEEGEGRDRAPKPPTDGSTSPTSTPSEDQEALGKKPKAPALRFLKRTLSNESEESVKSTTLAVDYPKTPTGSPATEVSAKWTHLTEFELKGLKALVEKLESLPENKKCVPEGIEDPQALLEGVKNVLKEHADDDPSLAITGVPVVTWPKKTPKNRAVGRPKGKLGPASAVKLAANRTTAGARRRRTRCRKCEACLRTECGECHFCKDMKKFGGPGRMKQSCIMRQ
UniProt O15550, 919-1401 limits assumed: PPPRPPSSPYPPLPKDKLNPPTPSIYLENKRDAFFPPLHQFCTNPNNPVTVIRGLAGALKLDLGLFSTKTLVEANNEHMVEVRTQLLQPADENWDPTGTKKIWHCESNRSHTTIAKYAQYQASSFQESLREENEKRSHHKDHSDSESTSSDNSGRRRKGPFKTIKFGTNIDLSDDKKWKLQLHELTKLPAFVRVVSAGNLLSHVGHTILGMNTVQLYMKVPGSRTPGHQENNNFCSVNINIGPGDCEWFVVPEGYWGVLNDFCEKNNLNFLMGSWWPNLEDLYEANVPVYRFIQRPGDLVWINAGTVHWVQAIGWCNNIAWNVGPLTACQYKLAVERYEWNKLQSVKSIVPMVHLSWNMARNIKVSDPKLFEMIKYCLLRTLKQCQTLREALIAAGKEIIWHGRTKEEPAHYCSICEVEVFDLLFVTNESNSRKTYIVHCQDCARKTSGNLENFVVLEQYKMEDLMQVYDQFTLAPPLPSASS

What was measured:
PHF8 (KDM7) = PHF8 (KDM7) (Homo sapiens, UniProt Q9UPP1); experiment: Histone lysine demethylase AlphaLISA assay, PHF8
KDM5B (PLU-1) = KDM5B (PLU-1) (Homo sapiens, UniProt Q9UGL1); experiment: Histone lysine demethylase AlphaLISA assay, KDM5B
KDM4C (JMJD2C) = KDM4C (JMJD2C) (Homo sapiens, UniProt Q9H3R0); experiment: Histone lysine demethylase AlphaLISA assay, KDM4C
KDM2B (FBXL10) = KDM2B (FBXL10) (Homo sapiens, UniProt Q8NHM5); experiment: Histone lysine demethylase AlphaLISA assay, KDM2B
KDM6A (UTX) = KDM6A (UTX) (Homo sapiens, UniProt O15550); experiment: Histone lysine demethylase AlphaLISA assay, KDM6A
[1] = read-out: HDME Inhibition PHF8 (IC50), AlphaLISA assay
[2] = read-out: HDME Inhibition PHF8, AlphaLISA, in vitro
[3] = read-out: HDME Inhibition KDM5B (IC50), AlphaLISA assay
[4] = read-out: HDME Inhibition KDM5B, AlphaLISA, in vitro
[5] = read-out: HDME Inhibition KDM4C (IC50), AlphaLISA assay
[6] = read-out: HDME Inhibition KDM4C, AlphaLISA, in vitro
[7] = read-out: HDME Inhibition KDM2B (IC50), AlphaLISA assay
[8] = read-out: HDME Inhibition KDM2B, AlphaLISA, in vitro

Row | SMILES | IC50 (PHF8 (KDM7); [1]) [nM] | IC50 (PHF8 (KDM7); [2]) [nM] | IC50 (KDM5B (PLU-1); [3]) [nM] | IC50 (KDM5B (PLU-1); [4]) [nM] | IC50 (KDM4C (JMJD2C); [5]) [nM] | IC50 (KDM4C (JMJD2C); [6]) [nM] | IC50 (KDM2B (FBXL10); [7]) [nM] | IC50 (KDM2B (FBXL10); [8]) [nM] | IC50 (KDM6A (UTX); read-out: HDME Inhibition KDM6A (IC50), AlphaLISA assay) [nM] | IC50 (KDM6A (UTX); read-out: HDME Inhibition KDM6A, AlphaLISA, in vitro) [nM]
1 | Cc1cc(C(=O)O)cc(CNCc2nncn2CCc2cccc(Cl)c2)n1 | 881 | 881 | > 10000 | > 10000 | > 10000 | > 10000 | 760 | 760 |  | 
2 | Cc1cc(C(=O)O)cc(CNCc2nnc(CCc3ccccc3)n2Cc2ccc(F)cc2)n1 | 2040 | 2040 | > 10000 | > 10000 | > 10000 | > 10000 | 1020 | 1020 | > 10000 | > 10000
